Measured values from patent publication US20160002619A1 (CORNELL UNIVERSITY, published 2016).
No constants are given. Whether binding was seen depends on the method and setting. Some binding calls cover weakened binding; strength is not graded here.

How the values were obtained:
[1] = molecular target: Δ72 R459A GAC; experiment: preparative Superdex200 gel filtration, self-association
[2] = molecular target: Δ72 R459E GAC; experiment: as above

Row | binding [1] | binding [2] | Binder
1 | binds |  | Δ72 R459A GAC (enzyme) glutaminase C subunit: LSSSPSEILQELGKGGTPPQQQQQQQQQPGASPPAAPGPKDSPGETDAFGNSEGKEMVAAGDNKIKQGLLPSLEDLLFYTIAEGQEKIPVHKFITALKSTGLRTSDPRLKECMDMLRLTLQTTSDGVMLDKDLFKKCVQSNIVLLTQAFRRKFVIPDFMSFTSHIDELYESAKKQSGGKVADYIPQLAKFSPDLWGVSVCTVDGQRHSIGDTKVPFCLQSCVKPLKYAIAVNDLGTEYVHRYVGKEPSGLRFNKLFLNEDDKPHNPMVNAGAIVVTSLIKQGVNNAEKFDYVMQFLNKMAGNEYVGFSNATFQSERESGDRNFAIGYYLKEKKCFPEGTDMVGILDFYFQLCSIEVTCESASVMAATLANGGFCPITGERVLSPEAVANTLSLMHSCGMYDFSGQFAFHVGLPAKSGVAGGILLVVPNVMGMMCWSPPLDKMGNSVKGIHFCHDLVSLCNFHNYDNLRHFAKKLDPRREGGDQRHSFGPLDYESLQQELALKDTVWKKVSPESSDDTSTTVVYRMESLGERS
2 |  | binds | Δ72 R459E GAC (enzyme) glutaminase C subunit: LSSSPSEILQELGKGGTPPQQQQQQQQQPGASPPAAPGPKDSPGETDAFGNSEGKEMVAAGDNKIKQGLLPSLEDLLFYTIAEGQEKIPVHKFITALKSTGLRTSDPRLKECMDMLRLTLQTTSDGVMLDKDLFKKCVQSNIVLLTQAFRRKFVIPDFMSFTSHIDELYESAKKQSGGKVADYIPQLAKFSPDLWGVSVCTVDGQRHSIGDTKVPFCLQSCVKPLKYAIAVNDLGTEYVHRYVGKEPSGLRFNKLFLNEDDKPHNPMVNAGAIVVTSLIKQGVNNAEKFDYVMQFLNKMAGNEYVGFSNATFQSERESGDRNFAIGYYLKEKKCFPEGTDMVGILDFYFQLCSIEVTCESASVMAATLANGGFCPITGERVLSPEAVENTLSLMHSCGMYDFSGQFAFHVGLPAKSGVAGGILLVVPNVMGMMCWSPPLDKMGNSVKGIHFCHDLVSLCNFHNYDNLRHFAKKLDPRREGGDQRHSFGPLDYESLQQELALKDTVWKKVSPESSDDTSTTVVYRMESLGERS
